Assay results from PubChem BioAssay AID504467 (National Center for Advancing Translational Sciences (NCATS), 2011).
The campaign covered roughly 330,000 compounds. About 7,700 (2.3%) were called active. The shares of active, inactive and inconclusive entries below differ from those in the screen. Calls come from the whole dose curve; as a rule, active = well fitted inhibition curve with a large enough effect; inconclusive = small, poorly fitted or top-dose-only effect, or effect the other way; inactive = flat fitted curve, though single readings scatter. Potencies beside an inconclusive call are fits to weak or partial responses and may not hold up.

Experiment: qHTS screen for small molecules that inhibit ELG1-dependent DNA repair in human embryonic kidney (HEK293T) cells expressing luciferase-tagged ELG1; note: nearly all actives have a fitted effect of over 55% in size
Conditions: HEK293T ELG1-luciferase reporter, luminescence, 16 h, DNA damage induced by 5-fluorouridine; activity change, negative = inhibition: at 46.1 µM (top of the series)
Outline: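 5-Fluorouridine DNA damage + compound/DMSO, 2,000 cells/well, 16 h, 37 °C/5% CO2. ONE-Glo, 30 min RT, luminescence. Readout = decrease in reporter signal.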
% is set by controls: 0 for no effect and ±100 for the full control effect; potency is the fitted concentration of half-maximal effect.

Compound	Potency	activity change, negative = inhibition
Cc1ccc(C)c(S(=O)(=O)N2CCCCC2CCNC(=O)C(=O)NCc2ccco2)c1 (stereo not drawn)	inconclusive: 20.6 µM [inhibitor, single point]	
CCC(C)n1ncn(-c2ccc(N3CCN(c4ccc(O)cc4)CC3)cc2)c1=O (stereo not drawn)		inactive: -13.9%
COc1ccc(-c2c(-c3ccc4c(c3)OCO4)noc2C)cn1	inconclusive: 29.1 µM [activator, partial curve, poor fit]	
Cc1ccccc1NC(=O)/C(C#N)=C/c1ccsc1	inconclusive: 20.6 µM [activator, single point]	
COc1ccc(/C=C2\C(=O)c3ccccc3OC2c2ccccc2)cc1 (stereo not drawn)	active: 23.1 µM	
CC(C)(C)c1ccc(-c2nc(C=O)c3ccccn23)cc1	inconclusive: 25.9 µM [activator, single point]	
Cc1ccc(OCc2n[nH]c(=S)n2-c2ccc(Br)cc2)cc1		inactive: 17.9%
CS(=O)(=O)N(CC(=O)N1CCN(c2ccccc2)CC1)c1cc(C(F)(F)F)ccc1Cl		inactive: -7.13%
COc1cccc(NC(=O)COC(=O)C2CC3CCCC(C2)C3=O)c1 (stereo not drawn)		inactive: 7.29%
COc1ccc(C(=O)NCCc2ccc(Cl)cc2)cc1S(=O)(=O)N1CCCCC1C (stereo not drawn)	inconclusive: 23.1 µM [inhibitor, single point]	
COc1ccc(NS(=O)(=O)c2nnc(NC(=O)c3ccccc3F)s2)cc1		inactive: 4.83%
Fc1ccc(NC(=S)NN=C2CCCCCC2)cc1	inconclusive: 2.59 µM [activator, full curve, poor fit]	
O=C(N/N=C/c1cccc(NC(=O)c2ccc(Cl)cc2)c1)c1cccc(O)c1		inactive: -16.5%
COc1ccc(CN(C)C(=O)c2cc(-c3ccc(C)cc3C)nc3ccccc23)c(OC)c1OC	active: 8.2 µM	
COC(=O)C1CCN(C(=O)CCC2CCCCC2)CC1	inconclusive: 23.1 µM [activator, single point]	
COc1ccc(CCNC(=O)C2CCCN2S(=O)(=O)c2cccc3nsnc23)cc1OC (stereo not drawn)		inactive: 2.37%
CCN1CCN(C2CCCCC2NS(=O)(=O)c2ccccc2)CC1 (stereo not drawn)		inactive: -0.278%
CCC(=O)Nc1ccc(NC(=O)c2ccc3c(c2)OCO3)cc1	inconclusive: 14.6 µM [activator, single point]	
COc1ccc(N2C(=O)C(CC(=O)Nc3ccccc3)N(Cc3ccc4c(c3)OCO4)C2=O)cc1 (stereo not drawn)	inconclusive: 18.4 µM [inhibitor, single point]	
Cc1ccccc1C(=O)NC(=S)Nc1ccc(S(=O)(=O)N2CCOCC2)cc1		inactive: -12.7%
CCCOc1ccc(C(=O)Nc2ccc(N(C)C)cc2)cc1	inconclusive: 0.517 µM [activator, full curve]	
C=CCNC(=O)C(C#N)c1nc2ccccc2nc1N1CCN(Cc2ccccc2)CC1 (stereo not drawn)		inactive: 2.7%
CCc1ccc(C(=O)N2CCN(c3ccc(NC(=O)c4cccnc4)cc3)CC2)cc1	active: 23.1 µM	
CCc1nn(CC(=O)NCCC(C)C)c(=O)c2cc3c(OC)cccc3n12		inactive: 17.3%

Gathered by group: the compounds so far containing fluorine
Compound	Potency	activity change, negative = inhibition
CS(=O)(=O)N(CC(=O)N1CCN(c2ccccc2)CC1)c1cc(C(F)(F)F)ccc1Cl		inactive: -7.13%
COc1ccc(NS(=O)(=O)c2nnc(NC(=O)c3ccccc3F)s2)cc1		inactive: 4.83%
Fc1ccc(NC(=S)NN=C2CCCCCC2)cc1	inconclusive: 2.59 µM [activator, full curve, poor fit]	

More results:

Compound	Potency	activity change, negative = inhibition
Nc1cc(=O)[nH]c(SCC(=O)Nc2ccccc2Sc2ccc(Cl)cc2)n1	inconclusive: 8.2 µM [inhibitor, partial curve]	
CCCCON1C(=O)c2cccc3cccc(c23)C1=O	inconclusive: 29.1 µM [activator, single point]	
COc1cc(/C=C(\C#N)C(=O)c2c(C)[nH]c3ccccc23)cc(OC)c1OC	inconclusive: 16.4 µM [activator, single point]	
CCOC(=O)c1ccc(NC(=O)C2CC(=O)N=C(N)S2)cc1 (stereo not drawn)	inconclusive: 16.4 µM [activator, partial curve, poor fit]	
COc1ccccc1CCC(=O)Nc1cccc(S(=O)(=O)N2CCCC2)c1	inconclusive: 25.9 µM [inhibitor, partial curve, poor fit]	
Cn1cc([N+](=O)[O-])c(C(=O)Nc2ccc(-c3nc4ccccc4o3)cc2)n1		inactive: 15.5%
O=C(CCCCCN1C(=O)[C@@H]2Cc3ccccc3CN2C1=O)Nc1cccc(F)c1	inconclusive: 16.4 µM [inhibitor, single point]	
Cc1ccc(C(=O)NCC(=O)OCC(=O)c2ccc3c(c2)OCCO3)cc1C	inconclusive: 14.6 µM [activator, partial curve]	
CN(Cc1ccccc1)C(=O)CCSc1nc(-c2ccc3c(c2)OCO3)cc(C(F)(F)F)n1	active: 16.4 µM	
CN(C)c1ccc(C(=O)OCC(=O)N2CCCC2)cc1	inconclusive: 25.9 µM [activator, single point]	
COC(=O)c1scc(C)c1NC(=O)CSc1ccc(Cl)cc1	inconclusive: 16.4 µM [inhibitor, partial curve, poor fit]	
CCCn1c(=O)c(C(=O)Nc2ncccc2O)c(O)c2ccccc21		inactive: -1.69%
COc1ccc(-c2noc(CN(Cc3nccn3C)C(C)C)n2)cc1		inactive: 5.95%
c1ccc(Oc2cccc(CN3CCOCC3)c2)cc1	inconclusive: 25.9 µM [activator, single point]	
N/C(=N/OC(=O)c1ccccc1F)c1nonc1N	inconclusive: 29.1 µM [activator, single point]	
O=C(Cn1cc(C(F)(F)F)ccc1=O)NC1CCCC1		inactive: 14.6%
O=C(NC1CCCCCC1)c1cc(S(=O)(=O)N2CCCCC2)ccc1N1CCOCC1		inactive: -7.88%
O=C(CCNc1cccc(Cl)c1)c1cccs1	inconclusive: 7.31 µM [activator, partial curve, poor fit]	
COc1ccc(-c2cc(C(F)(F)F)nc(SCC(=O)N3CCOCC3)n2)cc1OC	active: 8.2 µM	
CCOc1ccc(C(=O)CCc2nc3ccccc3s2)cc1	inconclusive: 20.6 µM [activator, single point]	
CC1(C)O[C@@H](CC(=O)O)[C@]23CO[C@H](C(=O)[C@]4(C)C2CC[C@@]2(C)[C@H](c5ccoc5)OC(=O)C5O[C@]524)[C@@H]13 (stereo partly drawn)		inactive: 14.6%
Cc1nc(N/N=C/c2ccccc2)nc(N(C)c2ccccc2)c1[N+](=O)[O-]		inactive: 1.92%
COc1cc2nc(CN(C)Cc3ccc(SC)cc3)[nH]c(=O)c2cc1OC		inactive: -13.8%
COc1ccc(C(=O)Nc2cccnc2Cl)cc1OC		inactive: 7.99%
